In EP2899279A1 one finds binding data, which are given here for 2 molecules.

Results are given in words; binding and its absence hold for the method and conditions named. Some entries that bind do so weakly or less than the wild type. For part of these data: Sequences can lack the tags named with a protein.

Experiment [1] has as its target T1, Grapevine fanleaf virus strain F13 (purified viral particles) (Grapevine fanleaf virus, strain F13) (UniProt P18474).
T1 sequence (looked up): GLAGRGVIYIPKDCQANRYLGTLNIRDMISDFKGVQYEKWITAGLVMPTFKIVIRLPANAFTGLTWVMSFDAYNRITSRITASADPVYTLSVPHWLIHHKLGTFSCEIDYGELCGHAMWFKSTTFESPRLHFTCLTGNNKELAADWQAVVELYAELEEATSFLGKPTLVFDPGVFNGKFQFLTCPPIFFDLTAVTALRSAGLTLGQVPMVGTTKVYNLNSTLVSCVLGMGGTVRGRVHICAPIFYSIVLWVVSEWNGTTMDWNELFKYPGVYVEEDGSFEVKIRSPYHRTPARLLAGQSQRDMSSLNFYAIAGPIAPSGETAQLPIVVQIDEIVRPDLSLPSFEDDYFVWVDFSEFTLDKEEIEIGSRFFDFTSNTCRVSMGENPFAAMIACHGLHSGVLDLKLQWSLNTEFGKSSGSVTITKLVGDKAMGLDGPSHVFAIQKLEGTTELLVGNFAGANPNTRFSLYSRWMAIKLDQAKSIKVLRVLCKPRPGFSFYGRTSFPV
Put plainly: phage display biopanning and phage-ELISA against purified GFLV-F13 (VHH on phage).

The target in experiment [2] is T1, Grapevine fanleaf virus strain F13 (purified viral particles) (Grapevine fanleaf virus, strain F13). Put plainly: DAS-ELISA, legend of Figure 3B. For orientation: An ELISA detects its analyte on a solid surface through an enzyme-linked reagent.
For experiment [3] the target is unchanged. Put plainly: DAS-ELISA: virus captured by anti-GFLV polyclonals, StrepII tagged Nb23 at 1 µg/ml as detection antibody.

B1: Nbp75 (VHH)
VHH: QVQLQESGGGSVQAGGSLRLSCVASEYPSSSTAMAWFRQAPGKEREGVAAINSVRHTTSYADSVKGRFTISKDNADNMMYLEMNSLKPEDTAIYYCAAADAIGLAEYWSTPTLSAARYKYWGQGTQVTVSS
For the molecule B1, in experiment [1], the binding entry was “binds”.

B2: StrepII tagged Nb23 (VHH, not shown: small tags and cut ends)
VHH: QVQLQESGGGSVQVGGSLRVACAASGDTFSGYLAAWFRQAPGKGREGVAAINSKRHTTSYADSVKGRFTISKDNADNIMYLEMNSLKPEDTAIYYCAAADAIGLAEYWSTPTLSAARYKYWGQGTQVTVSS
As for B2, the binding entry in experiment [2] and in experiment [3] was “binds” each time.
